In paper PMC11515916:
Results are given in words; binding and its absence hold for the method and conditions named. In cells and extracts the contact can be indirect. Binding calls can cover weak binding; strength is not graded here. Sequences can lack the tags named with a protein.

Biological target: Myc-tagged ZNF8 domain ZF repeats
Assay: co-IP; IP with anti-Myc or anti-Flag antibody in HEK293T cells co-transfected with Flag- and Myc-tagged proteins and their deletion mutants or domains

binding: binds
B1: Flag-SMYD3 (protein, UniProt Q9H7B4 1-428)
chain: MEPLKVEKFATAKRGNGLRAVTPLRPGELLFRSDPLAYTVCKGSRGVVCDRCLLGKEKLMRCSQCRVAKYCSAKCQKKAWPDHKRECKCLKSCKPRYPPDSVRLLGRVVFKLMDGAPSESEKLYSFYDLESNINKLTEDKKEGLRQLVMTFQHFMREEIQDASQLPPAFDLFEAFAKVICNSFTICNAEMQEVGVGLYPSISLLNHSCDPNCSIVFNGPHLLLRAVRDIEVGEELTICYLDMLMTSEERRKQLRDQYCFECDCFRCQTQDKDADMLTGDEQVWKEVQESLKKIEELKAHWKWEQVLAMCQAIISSNSERLPDINIYQLKVLDCAMDACINLGLLEEALFYGTRTMEPYRIFFPGSHPVRGVQVMKVGKLQLHQGMFPQAMKNLRLAFDIMRVTHGREHSLIEDLILLLEECDANIRAS
